No constants are given. Whether binding was seen depends on the method and setting. Some entries that bind do so weakly or less than the wild type.

The text below walks through data of patent US20070009972A1, “Epidermal growth factor receptor polypeptides and antibodies” (priority 2005, published 2007).

The chains are these.
T1: Biotin-…-CONH2 (SEQ ID NO:9)
T1 sequence (peptide, N-terminal biotin; C-terminal amide (CONH2); cyclic): GCAHYIDGPHCG

B1: SEQ ID NO 23 (scFv)
scFv: QVQLQQSGPGLVKPSQTLSLTCAISGDSVSSNRAAWNWIRQSPSRGLEWLGRTYYRSKWYYDYTLSVQGRITISPDTSRNQVFLQLNYVTPEDTAVYYCARVPQDSSGSRHDAFDFWGQGTMVTVSSGILGSGGGGSGGGGSGGGGSQPVLTQSPSASGTPGQRVTLSCAGSSSDIGSNPVNWYQQLPGTAPKLLMYSNDQRPSGVSDRFSGSKSGTSASLAVSGLQSEDEADYYCAAWDDSLNGWVFGGGTKLTVLSGIQKLISEEDL
B2: SEQ ID NO 26 (scFv)
scFv: EVQLVESGGGLVQPGGSLRLSCAASGFTFSNSAMSWVRQAPGKGLEWVSVIHSGGSTTYYADSVKGRFTISRDNSKNTLYLQMSSLRAEDTAVYYCAKHTSTWWGGEDHYGMDVWGQGTTVTVSSGILGSGGGGSGGGGSGGGGSQSVLTQPASVSGSPGQSVTISCTGTSSDVGSYMFVSWYQQHPGKAPKLMISDVSNRPSGVPDRFSGSKSGNTASLTISGLRAEDEADYYCSSYTSTNTRVFGGGTKLTVLSGIQKLISEEDL
B3: SEQ ID NO 30 (scFv)
scFv: QVQLKQSGPGLVNPSQTLSLTCAISGDSVSSDSAAWNWIRQSPSRGLEWLGRTYYRSKWYNEYTESVKSRIIINPDTSKNQFSLQLNSVTPEDTALYYCARFLRGTFDIWGQGSMVTVSSASTKGPSGILGSGGGGSGGGGSGGGGSNFMLTQPHSVSESPGKTVTISCTGSSGSIATNYVQWYQQRPGSAPTTVIYENNHRPSGVPDRFSGSIDSSSNSASLTISGLKTEDEAGYYCQSSDNDFHAVFGGGTQLTVLSGIQKLISEEDL

The target of this test is T1, Biotin-…-CONH2 (SEQ ID NO:9). The test is described as follows: yeast surface display screen of naive human library against the peptide (1 round MACS, 3 rounds FACS); clone isolated as specific binder.
Turning to B1, the binding result was “binds”.
Turning to B2, the binding entry is on record as “binds”.
The value for B3 was “binds”.
